# The list is a part of this screen's results and no random one: it gathers some chemical classes. Not every dose and run of a compound is shown. T/C is the treated group as % of the vehicle group. Some entries give survivors of the animals treated and no T/C: the source holds a T/C of zero for them, seemingly a mark for toxic or unscored doses. Some doses without a T/C left all or most animals alive at the check, yet need not have been tolerated: survival well below the control is almost never listed, so the zero probably covers shortened survival too. Counts of survivors are from the toxicity check (mostly the fifth day) where no day follows; animals may have died later. Schedules are NCI's codes, read here as Q, the interval in days (D) or hours (H), X, the number of doses. For survival time, the PubChem record calls one and a half times the control and up active, and a quarter to a half above the control has no call in these data; cut-offs in other NCI protocols can differ. Brackets with × say how often a value occurs here. Some entries hold several experiments; the values are given in rising order. Some entries show no survivor count and are marked so; the dose need not have been tolerated. Some T/C values carry the count of animals alive at the toxicity check (mostly the fifth day); where neither a count nor a note follows, no animal had died by that day.
# System: CD2F1 mice, L1210 leukemia ip, survival T/C
# Assay: NCI In Vivo Anticancer Drug Screen. Data for tumor model L1210 Leukemia (intraperitoneal) in CD2F1 (CDF1) mice
# Conditions: T/C endpoint: mean survival time, higher T/C = longer survival
# Method in brief: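 Antitumor effect is scored in animals hosting a serially transplanted tumor. Values compare compound-dosed animals against vehicle-only controls as a simple quotient.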
# [1] = dose: 75.0 mg/kg/injection, schedule: Q01DX001 (ip), vehicle: saline
# [2] = dose: 150.0 mg/kg/injection, schedule: Q01DX001 (ip), vehicle: saline
# [3] = dose: 300.0 mg/kg/injection, schedule: Q01DX001 (ip), vehicle: saline
# [4] = dose: 500.0 mg/kg/injection, schedule: Q01DX001 (ip), vehicle: distilled water + Tween-80
# [5] = dose: 100.0 mg/kg/injection, schedule: Q01DX009 (ip), vehicle: saline with Tween-80
# [6] = dose: 200.0 mg/kg/injection, schedule: Q01DX009 (ip), vehicle: saline with Tween-80
# [7] = dose: 25.0 mg/kg/injection, schedule: Q01DX001 (ip), vehicle: DMSO
# [8] = dose: 50.0 mg/kg/injection, schedule: Q01DX001 (ip), vehicle: DMSO
# [9] = dose: 100.0 mg/kg/injection, schedule: Q01DX001 (ip), vehicle: DMSO
# [10] = dose: 200.0 mg/kg/injection, schedule: Q01DX001 (ip), vehicle: DMSO
# [11] = dose: 400.0 mg/kg/injection, schedule: Q01DX001 (ip), vehicle: DMSO
compound,measurement,setting,value
O=[N+]([O-])c1cc([N+](=O)[O-])c(O)c([N+](=O)[O-])c1.OCCCN=C1CCCCC1,T/C,[1],98 % of control [survivor count not shown]
same,T/C,[2],97 % of control [survivor count not shown]
CCCCCN=C(N)C(N)=NCCCCC,T/C,"dose: 25.0 mg/kg/injection, schedule: Q04DX002 (ip), vehicle: saline with Tween-80",102 % of control
same,T/C,"dose: 50.0 mg/kg/injection, schedule: Q04DX002 (ip), vehicle: saline with Tween-80",95 % of control
same,T/C,"dose: 100.0 mg/kg/injection, schedule: Q04DX002 (ip), vehicle: saline with Tween-80",98 % of control
same,T/C,"dose: 200.0 mg/kg/injection, schedule: Q04DX002 (ip), vehicle: saline with Tween-80",93 % of control [2 of 3 alive]
O=P(Cl)(Cl)C(Cl)c1ccccc1 (stereo unspecified),T/C,[1],97 % of control
same,T/C,"dose: 75.0 mg/kg/injection, schedule: Q01DX009 (ip), vehicle: saline",100 % of control
same,T/C,"dose: 75.0 mg/kg/injection, schedule: Q04DX003 (ip), vehicle: saline",108 % of control
same,T/C,[2],97 % of control
same,T/C,"dose: 150.0 mg/kg/injection, schedule: Q01DX009 (ip), vehicle: saline",97 % of control
same,T/C,"dose: 150.0 mg/kg/injection, schedule: Q04DX003 (ip), vehicle: saline",104 % of control
same,T/C,[3],88 % of control
same,T/C,"dose: 300.0 mg/kg/injection, schedule: Q01DX009 (ip), vehicle: saline",94 % of control
same,T/C,"dose: 300.0 mg/kg/injection, schedule: Q04DX003 (ip), vehicle: saline",106 % of control
C[C@@H]1C[C@H](C)OP(=O)(N(CCCl)CCCl)O1 (stereo partly specified),T/C,"dose: 15.6 mg/kg/injection, schedule: Q01DX001 (ip), vehicle: distilled water + Tween-80, evaluated on day 30",113 % of control
same,T/C,"dose: 15.6 mg/kg/injection, schedule: Q01DX001 (ip), vehicle: distilled water + Tween-80, evaluated on day 45",94 % of control
same,T/C,"dose: 31.3 mg/kg/injection, schedule: Q01DX001 (ip), vehicle: distilled water + Tween-80, evaluated on day 30",125 % of control
same,T/C,"dose: 31.3 mg/kg/injection, schedule: Q01DX001 (ip), vehicle: distilled water + Tween-80, evaluated on day 45",100 % of control
same,T/C,"dose: 62.5 mg/kg/injection, schedule: Q01DX001 (ip), vehicle: distilled water + Tween-80, evaluated on day 30",116 % of control
same,T/C,"dose: 62.5 mg/kg/injection, schedule: Q01DX001 (ip), vehicle: distilled water + Tween-80, evaluated on day 45",107 % of control
same,T/C,"dose: 125.0 mg/kg/injection, schedule: Q01DX001 (ip), vehicle: distilled water + Tween-80, evaluated on day 30",137 % of control
same,T/C,"dose: 125.0 mg/kg/injection, schedule: Q01DX001 (ip), vehicle: distilled water + Tween-80, evaluated on day 45",125 % of control
same,T/C,"dose: 250.0 mg/kg/injection, schedule: Q01DX001 (ip), vehicle: distilled water + Tween-80, evaluated on day 30",134 % of control [5 of 6 alive]
same,T/C,"dose: 250.0 mg/kg/injection, schedule: Q01DX001 (ip), vehicle: distilled water + Tween-80, evaluated on day 45",131 % of control
same,T/C,[4],120 % of control [5 of 6 alive]
same,survivor count,[4],5 of 6
COc1ccc2ncccc2c1.O=[N+]([O-])c1cc([N+](=O)[O-])c(O)c([N+](=O)[O-])c1,T/C,[5],103 % of control [survivor count not shown]
same,T/C,[6],98 % of control [survivor count not shown]
C[C@@H]1CCO[P@@](=O)(N(CCCl)CCCl)N1,T/C,[7],107 % of control
same,T/C,[8],119 % of control
same,T/C,[9],147 % of control
same,survivor count,[10],6 of 6
same,survivor count,[11],2 of 6
Cc1nc(N)[nH]c(=O)c1CCCNc1cccnc1.O=[N+]([O-])c1cc([N+](=O)[O-])c(O)c([N+](=O)[O-])c1,T/C,"dose: 12.5 mg/kg/injection, schedule: Q01DX001 (ip), vehicle: saline with Tween-80",103 % of control
same,T/C,"dose: 25.0 mg/kg/injection, schedule: Q01DX001 (ip), vehicle: saline with Tween-80",87 % of control
same,T/C,"dose: 50.0 mg/kg/injection, schedule: Q01DX001 (ip), vehicle: saline with Tween-80",95 % of control
CC(=O)C(C)COP(N)(=O)N(CCCl)CCCl (stereo unspecified),T/C,"dose: 15.62 mg/kg/injection, schedule: Q01DX001 (ip), vehicle: DMSO",106 % of control
same,T/C,"dose: 31.3 mg/kg/injection, schedule: Q01DX001 (ip), vehicle: DMSO",103 % of control
same,T/C,"dose: 62.5 mg/kg/injection, schedule: Q01DX001 (ip), vehicle: DMSO",106 % of control
same,T/C,"dose: 125.0 mg/kg/injection, schedule: Q01DX001 (ip), vehicle: DMSO",113 % of control
same,T/C,"dose: 250.0 mg/kg/injection, schedule: Q01DX001 (ip), vehicle: DMSO",125 % of control
same,T/C,"dose: 500.0 mg/kg/injection, schedule: Q01DX001 (ip), vehicle: DMSO",132 % of control
O=P1(N(CCCl)CCCl)NCC(CO)O1 (stereo unspecified),T/C,"dose: 6.25 mg/kg/injection, schedule: Q01DX009 (ip), vehicle: water",101 and 103 % of control
same,T/C,"dose: 12.5 mg/kg/injection, schedule: Q01DX009 (ip), vehicle: water",94 % of control (2×)
same,T/C,"dose: 23.3 mg/kg/injection, schedule: Q01DX001 (ip), vehicle: water",97 and 101 % of control
same,T/C,"dose: 25.0 mg/kg/injection, schedule: Q01DX009 (ip), vehicle: water",97 and 100 % of control
same,T/C,"dose: 38.9 mg/kg/injection, schedule: Q01DX001 (ip), vehicle: water",101 % of control (2×)
same,T/C,"dose: 50.0 mg/kg/injection, schedule: Q01DX009 (ip), vehicle: water",95 and 101 % of control
same,T/C,"dose: 64.8 mg/kg/injection, schedule: Q01DX001 (ip), vehicle: water",98 and 101 % of control
same,T/C,"dose: 100.0 mg/kg/injection, schedule: Q01DX009 (ip), vehicle: water",100 and 101 % of control
same,T/C,"dose: 108.0 mg/kg/injection, schedule: Q01DX001 (ip), vehicle: water",101 % of control (2×)
same,T/C,"dose: 180.0 mg/kg/injection, schedule: Q01DX001 (ip), vehicle: water",98 and 101 % of control
same,T/C,"dose: 200.0 mg/kg/injection, schedule: Q01DX009 (ip), vehicle: water",101 and 114 % of control
same,T/C,"dose: 300.0 mg/kg/injection, schedule: Q01DX001 (ip), vehicle: water",101 and 107 % of control
O=P1(N(CCCl)CCCl)NC(CO)CCO1 (stereo unspecified),T/C,"dose: 12.5 mg/kg/injection, schedule: Q01DX001 (ip), vehicle: DMSO",101 % of control
same,T/C,[7],107 % of control
same,T/C,[8],101 % of control
same,T/C,[9],102 % of control
same,T/C,[10],101 % of control
same,T/C,[11],102 % of control
same,T/C,"dose: 800.0 mg/kg/injection, schedule: Q01DX001 (ip), vehicle: DMSO",111 % of control
CCN(CC)CCOC(=O)C(O)(c1ccccc1)c1c(C)c(C)cc(C)c1C (stereo unspecified),T/C,[1],101 % of control
same,T/C,[2],98 % of control
same,T/C,[3],98 % of control
S=P(Cl)(Cl)c1ccccc1,T/C,"dose: 100.0 mg/kg/injection, schedule: Q01DX001 (ip), vehicle: saline with Tween-80",95 % of control
same,T/C,"dose: 200.0 mg/kg/injection, schedule: Q01DX001 (ip), vehicle: saline with Tween-80",102 % of control [5 of 6 alive]
same,survivor count,"dose: 400.0 mg/kg/injection, schedule: Q01DX001 (ip), vehicle: saline with Tween-80",0 of 6
Cc1ccc([N+](=O)[O-])cc1NC(=O)NNc1c([N+](=O)[O-])cc(C(F)(F)F)cc1[N+](=O)[O-],T/C,[5],92 % of control
same,T/C,[6],92 % of control [5 of 6 alive]
same,T/C,"dose: 400.0 mg/kg/injection, schedule: Q01DX009 (ip), vehicle: saline with Tween-80",97 % of control [4 of 6 alive]

# Reference: PubChem BioAssay AID256 (DTP/NCI, 2004)
